Experimental data as given in PMC12040169 (PLOS Biology, 2025).
The list shows a part of the results.

test system: T1, CTL2-GFP (C. trachomatis L2/434/Bu, GFP-expressing); parameters: species or system HeLa; Intracellular C. trachomatis growth in HeLa cells, bulk GFP fluorescence relative to DMSO; conditions: bulk GFP, single well; 28.5 h, 10 µM; inhibitor
T1 construct: L2/434/Bu, GFP-expressing

Compound | % of control remaining [%]
CCNC(=O)c1cc2c(=O)n3ccccc3nc2n(C)c1=N [CBK287762] | 120.692
CN(CC1CC1)C(=O)Cn1cnc2c(F)cc(Br)cc2c1=O [CBK305227] | 110.054
Cc1noc(C)c1CC(=O)N1CCC2(C/C=C/C[C@H]3COCC[C@@H]3NC(=O)CNC2=O)CC1 [CBK292071] | 124.588
COc1ccc([C@H](NC(=O)C2CCN(C(=O)OCc3ccccc3)CC2)c2ccccc2C)cn1 [CBK084639] | 102.351
O=S(=O)(Cc1cccc(C(F)(F)F)c1)c1csc2ccnc(N3CCNCC3)c12 [CBK039166C] | 136.378
CN1Cc2nc[nH]c2C[C@H]1C(=O)NCc1ccco1 [CBK288979] | 110.953
C[C@@H](Nc1nc(-c2cccc(-c3ccccc3)c2)cnc1N)c1ccccc1 [CBK063704] | 182.382
O=C1c2ccc(Oc3ccc(Oc4ccc5c(c4)C(=O)N(c4cccnc4)C5=O)cc3)cc2C(=O)N1c1cccnc1 [CBK262195] | 107.836
CC(C(=O)O)N(c1ccc(Cl)cc1)S(C)(=O)=O (stereo not drawn) [CBK267945] | 84.4054
COc1ccc(F)cc1-c1ccc(S(=O)(=O)Nc2nc(CC(=O)N3CCOCC3)cs2)cc1 [CBK200031] | 118.33
CCNS(=O)(=O)c1ccc(NC(=O)c2nc3nc(C)cc(C(F)F)n3n2)cc1 [CBK266146] | 189.29
Cc1nc2ccc(Cl)cn2c1CN1CCN(C2CCCC2)C(=O)C1 [CBK281452] | 101.137
O=C(CSc1nc2ccccc2[nH]1)Nc1cccc(NC(=O)C23CC4CC(CC(C4)C2)C3)c1 [CBK265702] | 116.351
Cc1cccn2c(=O)cc(CN3CCc4nn(C)c(=O)cc4C3)nc12 [CBK305514] | 106.265
O=C1Nc2ccc(-c3ccsc3)cc2C(=O)N2CC[C@H](NC(=O)N3CCOCC3)[C@@H]12 [CBK289338] | 123.311
CC(C)NC(=O)N1CCc2sccc2C1c1ccc(Cl)cc1 (stereo not drawn) [CBK018247] | 95.3599
O=C(c1cn(-c2cc(Nc3ccccc3)ncn2)cn1)N1CCOCC1 [CBK288610] | 126.324
Cc1ccc(C(=O)Nc2ccc3c(c2)OCO3)c(N2CCOCC2)n1 [CBK076377] | 150.723
CCCOc1ccc(Cc2nc(N(C)C)cc(N(C)C)n2)cc1 [CBK008318] | 138.078
COc1cc(CNc2nc(O)cc(C(F)(F)F)n2)cc(OC)c1OC [CBK002390] | 111.409
COC(=O)C1Cc2cc3c(cc2C(c2cc(OC)c(OC)c(OC)c2)N1)OCO3 (stereo not drawn) [CBK200104T] | 135.192
NC(=O)c1cccc(-c2nc(-c3ccc(F)cc3F)cnc2N)c1 [CBK064109] | 134.36
CN(C)C(=O)Cn1cccc2cc(-c3ccc(F)cc3)nc1-2 [CBK285349] | 131.266
O=C(c1ccccc1)N1CCC(c2nnc(-c3ccsc3)o2)CC1 [CBK283371] | 135.71
O=c1c2cc(F)ccc2nc2n1CCN(Cc1ccsc1)CC2 [CBK284860] | 100.691
Cc1ccc(C(=O)N2CCC(C(=O)NC(c3ccccc3)c3ccsc3)CC2)cc1 (stereo not drawn) [CBK060154] | 115.863

Compound | % of control remaining [%]
COc1ccc(OC)c(S(=O)(=O)n2ccc3c(N4CCNCC4)nccc32)c1 [CBK059067C] | 113.667
COc1ccc(-c2nc(-c3ccncc3)ncc2C(=O)NCc2ccncc2)cc1 [CBK291112] | 141.014
CCC(C(=O)O)N1C(=O)NC2C1N(C)C(=O)N2C (stereo not drawn) [CBK287039] | 126.54
O=C(O)Cc1ccc(Oc2ncc(C(F)(F)F)cc2Cl)cc1 [CBK161657] | 138.212
O=C(Nc1cccc(Cl)c1)c1nnc(C(=O)NC2CCCCC2)s1 [CBK294406] | 151.179
Cc1cccnc1C1(O)CCN(C(=O)Cc2ccccc2Cl)CC1 [CBK283682] | 145.42
CSc1nc2c(cc1C#N)CCC2 [CBK026532] | 113.36
CC(=O)N1CCc2c([nH]c3ccccc23)C1CNCc1ccc(F)cc1 (stereo not drawn) [CBK066968] | 197.3
O=C(Nc1ccccc1)[C@H]1CN2CCC1C[C@@H]2Cn1cc(C2(O)CCCC2)nn1 (stereo partly drawn) [CBK289091] | 116.065
COc1ccc(NC(=O)CC(C(=O)O)N2CCOCC2)cc1 (stereo not drawn) [CBK266955] | 129.626
CSc1nnc(CCCNC(=O)c2cccc(C#N)c2)n1CC(C)C [CBK306023] | 118.278
CC(=O)Nc1c(-c2ccc(C)cc2)c(=O)c2ccccc2n1C [CBK287775] | 139.987
CCOc1ncccc1C(=O)N(Cc1nnc(-c2ccc(Cl)cc2)o1)C1CC1 [CBK296934] | 137.612
COc1ccc(-n2c(CNCc3ccc4c(c3)OCO4)nc3ccccc3c2=O)cc1 [CBK074522] | 81.3032
O=c1cc(Nc2ccc3c(c2)OCO3)[nH]c(=O)n1-c1ccc(Cl)cc1 [CBK287507] | 152.403
Cc1ccn(CCC(=O)N2CCC3(C/C=C/C[C@H]4COCC[C@@H]4NC(=O)CNC3=O)CC2)n1 [CBK292070] | 143.875
Cc1cc(O)cc(=O)n1Cc1cccnc1 [CBK291123] | 101.06
Cc1cccc(-c2n[nH]c(=S)n2CC(=O)Nc2cccc(C#Cc3ccccn3)c2)c1 [CBK296633] | 148.399
COCCN(C(=S)Nc1ccc(OC)cc1)C(C)c1cccnc1 (stereo not drawn) [CBK294471] | 164.066
COc1ccc(-c2cnn(-c3ccc(OC(F)(F)F)cc3)n2)cc1 [CBK112773] | 108.107
COc1ccc(N2C(=O)CC(NNC(N)=O)C2=O)cc1 (stereo not drawn) [CBK263080] | 97.1665
NCCCNc1ccc(C(=O)Nc2ccc(Cl)cc2)cc1[N+](=O)[O-] [CBK267880] | 64.9876
Cc1csc2ncnc(N3CCN(C(=O)C4CC4)CC3)c12 [CBK023593] | 104.913
O=C(NCC1CCCCC1)c1ccccc1-n1cccc1 [CBK149603] | 100
CCOC(=O)c1cnc2ccc(Cl)cc2c1NC [CBK307605] | 132.636
CN(Cc1ccccc1)C(=O)CNS(=O)(=O)c1ccc([N+](=O)[O-])cc1 [CBK268586] | 95.7296

Compound | % of control remaining [%]
CCCn1ccnc1CN1CCC2(CC1)CC(C(=O)O)N(C(C)=O)C2 (stereo not drawn) [CBK306691] | 129.972
O=C(Nc1cccc(-c2noc(-c3ccccn3)n2)c1)c1cccs1 [CBK270283] | 149.869
CC(C)(C)c1cc(C(=O)Nc2ccccn2)n(Cc2ccc(Cl)cc2Cl)n1 [CBK107361] | 93.8381
Cc1cc(OC(C)C(=O)Nc2nnc[nH]2)ccc1Cl (stereo not drawn) [CBK269731] | 105.767
CC(=O)CSc1nnc(-c2ccc(F)cc2)o1 [CBK068327] | 103.687
COc1cc(-c2cncc(N(C)CCN(C)C)n2)cc(OC)c1OC [CBK065312] | 167.781
CC(C)(C)NC(=O)COc1ccc(CNCc2ccccn2)cc1 [CBK268420C] | 131.783
CN(Cc1cc(C(C)(C)C)c(O)c(C(C)(C)C)c1)Cc1cc(C(C)(C)C)c(O)c(C(C)(C)C)c1 [CBK261980] | 117.707
Cc1ccc(-c2cc3cccnc3n2CCC(=O)NC2CC2)cn1 [CBK284964] | 111.854
O=[N+]([O-])c1cccc(-c2cc(N3CCC(N4CCCCC4)CC3)ncn2)c1 [CBK037710] | 127.117
O=C(c1cccs1)N1CCCN(c2nccc(C(F)(F)F)n2)CC1 [CBK019390] | 78.5454
Fc1cccc(-c2nccnc2NCc2cccnc2)c1 [CBK037633] | 100.821
CSCCCNC(=O)c1ccc(-c2ccc(OC(F)(F)F)cc2)nc1 [CBK156216] | 88.9515
COc1cc(OC)c(NC(=O)N2CCC(n3c(=O)[nH]c4ccccc43)CC2)cc1Cl [CBK149851] | 105.317
CCN(C)c1c(C)nc2c(OCC(=O)N(C)C)cccn12 [CBK147316] | 112.442
Cc1nn(C)c2ncc(S(=O)(=O)NC(C)c3cccc(F)c3)cc12 (stereo not drawn) [CBK305948] | 140.322
CS(=O)(=O)N(CC(=O)Nc1ccc2ccccc2c1)c1ccc(Cl)cc1Cl [CBK267501] | 128.962
CCCCCc1nnc(NC(=O)c2cccs2)s1 [CBK058382] | 116.79
NC(=O)CN1CCCC2(CCN(C(=O)Cc3c[nH]c4ccccc34)C2)C1 (stereo not drawn) [CBK132046] | 100
O=C(CCc1cccnc1)Nc1cnc(-c2cccc(OC(F)(F)F)c2)c(-c2cccnc2)n1 [CBK036811] | 78.7682
COc1ccc(C(=O)Nc2c(C)noc2C)c(OC)n1 [CBK200300] | 106.968
COC(=O)c1c(NC(=O)c2ccccc2)csc1C [CBK026684] | 125.341
CN1CCC(N(C2CC2)S(=O)(=O)c2ccc(NC(=O)C(C)(C)C)cc2)CC1 [CBK021115] | 124.858
O=C(Cn1cccc2cc(C3CCNCC3)nc1-2)N1CCCC1 [CBK284680] | 105.826
Cn1cccc1-c1cc(C(=O)N/N=C/c2cccc(O)c2)[nH]n1 [CBK263397] | 124.798
CC(C)c1ccc(/C=C/C(=O)NCCc2c[nH]cn2)cc1 [CBK149629] | 116.436

Of the compounds above, 17 have fluorine:
Compound | % of control remaining [%]
CN(CC1CC1)C(=O)Cn1cnc2c(F)cc(Br)cc2c1=O [CBK305227] | 110.054
O=S(=O)(Cc1cccc(C(F)(F)F)c1)c1csc2ccnc(N3CCNCC3)c12 [CBK039166C] | 136.378
COc1ccc(F)cc1-c1ccc(S(=O)(=O)Nc2nc(CC(=O)N3CCOCC3)cs2)cc1 [CBK200031] | 118.33
CCNS(=O)(=O)c1ccc(NC(=O)c2nc3nc(C)cc(C(F)F)n3n2)cc1 [CBK266146] | 189.29
COc1cc(CNc2nc(O)cc(C(F)(F)F)n2)cc(OC)c1OC [CBK002390] | 111.409
NC(=O)c1cccc(-c2nc(-c3ccc(F)cc3F)cnc2N)c1 [CBK064109] | 134.36
CN(C)C(=O)Cn1cccc2cc(-c3ccc(F)cc3)nc1-2 [CBK285349] | 131.266
O=c1c2cc(F)ccc2nc2n1CCN(Cc1ccsc1)CC2 [CBK284860] | 100.691
O=C(O)Cc1ccc(Oc2ncc(C(F)(F)F)cc2Cl)cc1 [CBK161657] | 138.212
CC(=O)N1CCc2c([nH]c3ccccc23)C1CNCc1ccc(F)cc1 (stereo not drawn) [CBK066968] | 197.3
COc1ccc(-c2cnn(-c3ccc(OC(F)(F)F)cc3)n2)cc1 [CBK112773] | 108.107
CC(=O)CSc1nnc(-c2ccc(F)cc2)o1 [CBK068327] | 103.687
O=C(c1cccs1)N1CCCN(c2nccc(C(F)(F)F)n2)CC1 [CBK019390] | 78.5454
Fc1cccc(-c2nccnc2NCc2cccnc2)c1 [CBK037633] | 100.821
CSCCCNC(=O)c1ccc(-c2ccc(OC(F)(F)F)cc2)nc1 [CBK156216] | 88.9515
Cc1nn(C)c2ncc(S(=O)(=O)NC(C)c3cccc(F)c3)cc12 (stereo not drawn) [CBK305948] | 140.322
O=C(CCc1cccnc1)Nc1cnc(-c2cccc(OC(F)(F)F)c2)c(-c2cccnc2)n1 [CBK036811] | 78.7682

Structural class, the entries above containing a cyano group.
Compound | % of control remaining [%]
CSc1nc2c(cc1C#N)CCC2 [CBK026532] | 113.36
CSc1nnc(CCCNC(=O)c2cccc(C#N)c2)n1CC(C)C [CBK306023] | 118.278
